# From the supplement of paper PMC8728848
# Some of the results follow.
# B1: FimA-N2 (Actinomyces oris) (protein)
# chain: MHHHHHHSSGVDLGTENLYFQSNAWIYDVNVYPKNEAIDVDKTIQAQKLNGYGVGSLIKFPVESTAPTLDAKSFYKYFQLKDTLDERLSEVTATDVSLEGTPLQPTDYKVETKQQTVTVTFTAEGLKKIKAAPGKKVSAVFQGKVTKAGNGAITNRAQVISDTLYAEQPPTPETPPTDPENPPTSDEVISRWGDLSIKKVDTHQQGQTKA
# How the values were obtained:
# Assay in all cases: glycan array binding signal (z-score within array); higher = stronger binding
# Settings in all cases: glycan notation: IUPAC condensed, linker removed
# [1] = target: Neu5Ac(a2-6)Gal(b1-4)GlcNAc(b1-6)[Gal(b1-3)]GalNAc
# Procedure, shortened: (§1)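 Arrays were curated from the Consortium for Functional Glycomics database, 3228 in total, and kept only where the protein sequence was available. Binding is expressed as a within-array Z-score. This score was averaged across arrays of the same protein sequence at different concentrations or buffers and across linkers, and negative values can be read as non-binding.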
# [2] = target: Neu5Ac(a2-6)Gal(b1-4)GlcNAc6S
# Procedure, shortened: as §1
# Neu5Ac(a2-6)GalNAc = target: Neu5Ac(a2-6)GalNAc
# Procedure, shortened: as §1
# [3] = target: Neu5Ac(a2-6)GalNAc(b1-4)GlcNAc
# Procedure, shortened: as §1
# [4] = target: Neu5Ac(a2-6)GalNAc(b1-4)GlcNAc6S
# Procedure, shortened: as §1
# [5] = target: Neu5Ac(a2-6)GlcNAc(b1-4)GlcNAc
# Procedure, shortened: as §1
# [6] = target: Neu5Ac(a2-6)GlcNAc(b1-4)GlcNAc(b1-4)GlcNAc
# Procedure, shortened: as §1
# Neu5Ac(a2-8)Neu5Ac = target: Neu5Ac(a2-8)Neu5Ac
# Procedure, shortened: as §1
# [7] = target: Neu5Ac(a2-8)Neu5Ac(a2-3)Gal(b1-3)GalNAc(b1-4)[Neu5Ac(a2-3)]Gal(b1-4)Glc
# Procedure, shortened: as §1
# [8] = target: Neu5Ac(a2-8)Neu5Ac(a2-3)Gal(b1-3)GalNAc(b1-4)[Neu5Ac(a2-8)Neu5Ac(a2-3)]Gal(b1-4)Glc
# Procedure, shortened: as §1
# [9] = target: Neu5Ac(a2-8)Neu5Ac(a2-3)Gal(b1-4)Glc
# Procedure, shortened: as §1
# [10] = target: Neu5Ac(a2-8)Neu5Ac(a2-3)Gal(b1-4)GlcNAc
# Procedure, shortened: as §1
# [11] = target: Neu5Ac(a2-8)Neu5Ac(a2-3)[Gal(b1-3)GalNAc(b1-4)]Gal(b1-4)Glc
# Procedure, shortened: as §1
# [12] = target: Neu5Ac(a2-8)Neu5Ac(a2-3)[GalNAc(b1-4)]Gal(b1-4)Glc
# Procedure, shortened: as §1
# [13] = target: Neu5Ac(a2-8)Neu5Ac(a2-8)Neu5Ac
# Procedure, shortened: as §1
# [14] = target: Neu5Ac(a2-8)Neu5Ac(a2-8)Neu5Ac(a2-3)Gal(b1-4)Glc
# Procedure, shortened: as §1
# [15] = target: Neu5Ac(a2-8)Neu5Ac(a2-8)Neu5Ac(a2-3)[Gal(b1-3)GalNAc(b1-4)]Gal(b1-4)Glc
# Procedure, shortened: as §1
# [16] = target: Neu5Ac(a2-8)Neu5Ac(a2-8)Neu5Ac(a2-3)[GalNAc(b1-4)]Gal(b1-4)Glc
# Procedure, shortened: as §1
# [17] = target: Neu5Ac(a2-8)Neu5Ac(a2-8)Neu5Ac(a2-8)Neu5Ac(a2-3)[GalNAc(b1-4)]Gal(b1-4)Glc
# Procedure, shortened: as §1
# [18] = target: Neu5Ac(a2-8)Neu5Gc(a2-3)Gal(b1-4)GlcNAc
# Procedure, shortened: as §1
# [19] = target: Neu5Ac(b2-6)Gal(b1-4)GlcNAc
# Procedure, shortened: as §1
# Neu5Ac(b2-6)GalNAc = target: Neu5Ac(b2-6)GalNAc
# Procedure, shortened: as §1
# [20] = target: Neu5Ac9Ac(a2-3)Gal(b1-3)GlcNAc
# Procedure, shortened: as §1
# [21] = target: Neu5Ac9Ac(a2-3)Gal(b1-4)GlcNAc
# Procedure, shortened: as §1
# [22] = target: Neu5Ac9Ac(a2-6)Gal(b1-4)GlcNAc
# Procedure, shortened: as §1
# [23] = target: Neu5Gc(a2-3)Gal(b1-3)GlcNAc
# Procedure, shortened: as §1
# [24] = target: Neu5Gc(a2-3)Gal(b1-3)[Fuc(a1-4)]GlcNAc
# Procedure, shortened: as §1
# Neu5Gc(a2-3)Gal(b1-4)Glc = target: Neu5Gc(a2-3)Gal(b1-4)Glc
# Procedure, shortened: as §1
# [25] = target: Neu5Gc(a2-3)Gal(b1-4)GlcNAc
# Procedure, shortened: as §1
# [26] = target: Neu5Gc(a2-3)Gal(b1-4)GlcNAc(b1-3)Gal(b1-4)GlcNAc(b1-2)Man(a1-3)[Neu5Gc(a2-3)Gal(b1-4)GlcNAc(b1-3)Gal(b1-4)GlcNAc(b1-2)Man(a1-6)]Man(b1-4)GlcNAc(b1-4)GlcNAc
# Procedure, shortened: as §1
# [27] = target: Neu5Gc(a2-3)Gal(b1-4)[Fuc(a1-3)]GlcNAc
# Procedure, shortened: as §1
# [28] = target: Neu5Gc(a2-6)Gal(b1-4)GlcNAc
# Procedure, shortened: as §1
# Neu5Gc(a2-6)GalNAc = target: Neu5Gc(a2-6)GalNAc
# Procedure, shortened: as §1
# [29] = target: Neu5Gc(a2-8)Neu5Ac(a2-3)Gal(b1-4)GlcNAc
# Procedure, shortened: as §1
# [30] = target: Neu5Gc(a2-8)Neu5Gc(a2-3)Gal(b1-4)GlcNAc
# Procedure, shortened: as §1
# [31] = target: Neu5Gc(a2-8)Neu5Gc(a2-3)Gal(b1-4)GlcNAc(b1-3)Gal(b1-4)GlcNAc
# Procedure, shortened: as §1
# [32] = target: Neu5Gc(a2-8)Neu5Gc(a2-6)Gal(b1-4)GlcNAc
# Procedure, shortened: as §1
# [33] = target: Neu5Gc(b2-6)Gal(b1-4)GlcNAc
# Procedure, shortened: as §1
binder,measurement,setting,value
B1,glycan array binding signal (z-score),[1],-0.413
same,glycan array binding signal (z-score),[2],-0.702
same,glycan array binding signal (z-score),Neu5Ac(a2-6)GalNAc,-0.875
same,glycan array binding signal (z-score),[3],-0.747
same,glycan array binding signal (z-score),[4],0.266
same,glycan array binding signal (z-score),[5],-0.607
same,glycan array binding signal (z-score),[6],0.675
same,glycan array binding signal (z-score),Neu5Ac(a2-8)Neu5Ac,-0.483
same,glycan array binding signal (z-score),[7],-0.55
same,glycan array binding signal (z-score),[8],-0.655
same,glycan array binding signal (z-score),[9],-1.36
same,glycan array binding signal (z-score),[10],-0.815
same,glycan array binding signal (z-score),[11],-0.044
same,glycan array binding signal (z-score),[12],-1.37
same,glycan array binding signal (z-score),[13],-0.152
same,glycan array binding signal (z-score),[14],-0.12
same,glycan array binding signal (z-score),[15],0.705
same,glycan array binding signal (z-score),[16],0.959
same,glycan array binding signal (z-score),[17],0.299
same,glycan array binding signal (z-score),[18],-0.243
same,glycan array binding signal (z-score),[19],-0.48
same,glycan array binding signal (z-score),Neu5Ac(b2-6)GalNAc,-0.452
same,glycan array binding signal (z-score),[20],-0.694
same,glycan array binding signal (z-score),[21],0.016
same,glycan array binding signal (z-score),[22],-0.568
same,glycan array binding signal (z-score),[23],0.728
same,glycan array binding signal (z-score),[24],-1.11
same,glycan array binding signal (z-score),Neu5Gc(a2-3)Gal(b1-4)Glc,0.478
same,glycan array binding signal (z-score),[25],-0.066
same,glycan array binding signal (z-score),[26],-0.144
same,glycan array binding signal (z-score),[27],0.623
same,glycan array binding signal (z-score),[28],-0.697
same,glycan array binding signal (z-score),Neu5Gc(a2-6)GalNAc,-0.616
same,glycan array binding signal (z-score),[29],0.386
same,glycan array binding signal (z-score),[30],-1.21
same,glycan array binding signal (z-score),[31],0.928
same,glycan array binding signal (z-score),[32],-1.78
same,glycan array binding signal (z-score),[33],-0.336

# An excerpt taken from the entries so far:
binder,measurement,setting,value
B1,glycan array binding signal (z-score),[24],-1.11
same,glycan array binding signal (z-score),Neu5Gc(a2-3)Gal(b1-4)Glc,0.478
same,glycan array binding signal (z-score),[25],-0.066
same,glycan array binding signal (z-score),[26],-0.144
same,glycan array binding signal (z-score),[27],0.623
same,glycan array binding signal (z-score),[28],-0.697
same,glycan array binding signal (z-score),Neu5Gc(a2-6)GalNAc,-0.616
same,glycan array binding signal (z-score),[29],0.386
same,glycan array binding signal (z-score),[30],-1.21
same,glycan array binding signal (z-score),[31],0.928
same,glycan array binding signal (z-score),[32],-1.78
